Here are results for 2 substances from paper PMC6033098.

By UniProt entry, the sequences of proteins in these tests, tags left out. Residues count along the entry.
UniProt Q4U9M9, residues 20-873: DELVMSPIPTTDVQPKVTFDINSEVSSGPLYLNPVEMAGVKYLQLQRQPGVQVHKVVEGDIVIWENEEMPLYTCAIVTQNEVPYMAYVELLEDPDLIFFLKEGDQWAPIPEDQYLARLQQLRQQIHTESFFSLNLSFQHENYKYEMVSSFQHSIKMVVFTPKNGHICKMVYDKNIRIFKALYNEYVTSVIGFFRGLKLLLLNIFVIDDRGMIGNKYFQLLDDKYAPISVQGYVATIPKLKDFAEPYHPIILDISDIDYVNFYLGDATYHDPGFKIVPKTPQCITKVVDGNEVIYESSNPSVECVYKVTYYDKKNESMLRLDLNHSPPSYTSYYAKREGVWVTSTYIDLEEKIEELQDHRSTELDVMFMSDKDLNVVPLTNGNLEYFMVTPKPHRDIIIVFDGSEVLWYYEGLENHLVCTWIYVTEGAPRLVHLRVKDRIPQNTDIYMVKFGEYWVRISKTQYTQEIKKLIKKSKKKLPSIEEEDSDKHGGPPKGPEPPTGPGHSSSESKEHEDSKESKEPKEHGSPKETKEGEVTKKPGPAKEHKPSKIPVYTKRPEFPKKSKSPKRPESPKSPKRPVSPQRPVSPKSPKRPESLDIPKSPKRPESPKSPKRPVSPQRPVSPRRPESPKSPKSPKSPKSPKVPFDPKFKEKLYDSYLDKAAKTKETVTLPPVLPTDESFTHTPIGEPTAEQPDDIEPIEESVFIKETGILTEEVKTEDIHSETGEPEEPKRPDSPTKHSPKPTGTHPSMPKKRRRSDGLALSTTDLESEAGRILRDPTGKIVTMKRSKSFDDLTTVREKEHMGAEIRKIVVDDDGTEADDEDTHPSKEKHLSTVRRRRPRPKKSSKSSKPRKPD
UniProt F1MVN9: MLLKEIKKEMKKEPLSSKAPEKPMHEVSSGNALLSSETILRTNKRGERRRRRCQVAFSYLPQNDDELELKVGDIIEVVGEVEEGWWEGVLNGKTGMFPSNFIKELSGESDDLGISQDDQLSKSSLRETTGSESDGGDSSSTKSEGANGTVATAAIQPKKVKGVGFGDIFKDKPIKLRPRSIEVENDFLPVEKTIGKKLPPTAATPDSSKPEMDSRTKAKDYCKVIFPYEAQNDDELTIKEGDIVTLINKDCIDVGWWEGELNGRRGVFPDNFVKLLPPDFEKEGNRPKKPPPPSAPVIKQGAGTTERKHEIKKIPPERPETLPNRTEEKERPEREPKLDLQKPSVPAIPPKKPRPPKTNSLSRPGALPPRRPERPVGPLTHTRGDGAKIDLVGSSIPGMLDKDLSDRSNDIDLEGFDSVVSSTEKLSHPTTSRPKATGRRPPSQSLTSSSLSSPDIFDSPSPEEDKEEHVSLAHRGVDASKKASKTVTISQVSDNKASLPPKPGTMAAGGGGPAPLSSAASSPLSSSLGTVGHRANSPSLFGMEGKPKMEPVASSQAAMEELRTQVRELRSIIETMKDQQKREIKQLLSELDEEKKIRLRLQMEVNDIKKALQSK
UniProt E1BGU2: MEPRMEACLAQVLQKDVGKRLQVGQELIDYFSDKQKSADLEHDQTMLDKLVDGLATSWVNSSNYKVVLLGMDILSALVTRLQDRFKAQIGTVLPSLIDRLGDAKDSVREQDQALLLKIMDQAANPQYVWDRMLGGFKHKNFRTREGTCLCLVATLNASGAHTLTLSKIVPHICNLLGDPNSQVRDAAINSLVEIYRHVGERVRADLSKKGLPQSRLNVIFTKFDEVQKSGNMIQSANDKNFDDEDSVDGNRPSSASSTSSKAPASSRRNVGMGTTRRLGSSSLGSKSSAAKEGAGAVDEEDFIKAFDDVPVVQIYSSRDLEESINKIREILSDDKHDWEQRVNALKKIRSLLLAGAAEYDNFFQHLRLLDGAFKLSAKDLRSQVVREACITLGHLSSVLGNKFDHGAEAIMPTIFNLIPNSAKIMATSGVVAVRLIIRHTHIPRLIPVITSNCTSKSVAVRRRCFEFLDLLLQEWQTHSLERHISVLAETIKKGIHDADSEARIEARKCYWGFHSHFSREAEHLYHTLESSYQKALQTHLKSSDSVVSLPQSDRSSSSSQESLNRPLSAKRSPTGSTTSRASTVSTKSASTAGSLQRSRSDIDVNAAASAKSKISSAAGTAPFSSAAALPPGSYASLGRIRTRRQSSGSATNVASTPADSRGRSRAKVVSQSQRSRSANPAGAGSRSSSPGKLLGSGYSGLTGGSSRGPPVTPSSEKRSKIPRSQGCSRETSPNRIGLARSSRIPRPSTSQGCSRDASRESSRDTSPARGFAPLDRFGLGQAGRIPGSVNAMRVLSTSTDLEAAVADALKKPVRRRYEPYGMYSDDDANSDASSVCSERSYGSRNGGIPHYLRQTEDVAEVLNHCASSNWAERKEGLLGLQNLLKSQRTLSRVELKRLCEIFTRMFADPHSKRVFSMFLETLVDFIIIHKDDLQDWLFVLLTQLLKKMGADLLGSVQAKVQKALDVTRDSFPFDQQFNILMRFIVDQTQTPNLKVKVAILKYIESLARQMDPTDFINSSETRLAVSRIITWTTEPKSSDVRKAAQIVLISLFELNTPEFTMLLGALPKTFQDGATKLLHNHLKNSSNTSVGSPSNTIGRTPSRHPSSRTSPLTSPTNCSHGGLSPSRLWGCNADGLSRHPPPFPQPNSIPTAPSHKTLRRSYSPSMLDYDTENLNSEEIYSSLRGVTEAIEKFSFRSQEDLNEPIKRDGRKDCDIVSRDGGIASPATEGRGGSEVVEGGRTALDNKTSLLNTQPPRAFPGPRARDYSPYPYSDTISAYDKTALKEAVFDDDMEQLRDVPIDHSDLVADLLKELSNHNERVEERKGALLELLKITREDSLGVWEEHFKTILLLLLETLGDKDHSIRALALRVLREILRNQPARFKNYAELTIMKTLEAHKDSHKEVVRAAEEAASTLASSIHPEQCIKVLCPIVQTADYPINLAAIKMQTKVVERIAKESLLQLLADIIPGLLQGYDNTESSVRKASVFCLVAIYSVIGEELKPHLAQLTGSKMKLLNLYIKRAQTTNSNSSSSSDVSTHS

These are yes or no findings as the source states them, for the method shown. Binding seen in cells or lysates may run through a third protein. Some entries that bind do so weakly or less than the wild type.

In test [1] the target is T. annulata major schizont surface protein p104 (TA08425) (Theileria annulata) (UniProt Q4U9M9). The test is described as follows: proximity ligation; Duolink in situ proximity ligation in fixed TaC12 cells with pairs of primary antibodies; signal when two proteins are less than 40 nm apart; negative controls BoMac cells and single primary antibodies.
The target of test [2] is SH3 domain‐containing kinase‐binding protein 1 (CIN85) (bovine (endogenous in TaC12)) (UniProt F1MVN9). The experiment in a line: co-IP; endogenous TaMISHIP or CIN85 from TaC12 lysate (modified RIPA buffer) with rat antisera overnight at 4 °C, protein L Dynabeads 6 hr; controls rat IgG and anti‐TaMISHIP IP from BoMac lysate; Western blot. A general note: A western blot detects proteins with antibodies after separation by electrophoresis.

Regarding CLASP1 (from UniProt E1BGU2 1-1540), the binding entry in test [1] is recorded as “binds”.

In the case of “T. annulata major schizont surface protein p104 (TA08425) (from UniProt Q4U9M9 20-873)”, the binding entry in test [2] was “no binding”.
